Measured values from patent publication US20100028358A1, “Compositions and Methods for Controlling Tissue Factor Signaling Specificity” (priority 2005, published 2010).
Results are given in words; binding and its absence hold for the method and conditions named. For some assays here: In cells and extracts the contact can be indirect. Some results given as binding are weak or reduced against the parent protein; the word gives no strength.

Protein sequences, listed by entry. Tags and fused reporters are not part of them. Residues count along the entry.
UniProt P13726, residues 33-295: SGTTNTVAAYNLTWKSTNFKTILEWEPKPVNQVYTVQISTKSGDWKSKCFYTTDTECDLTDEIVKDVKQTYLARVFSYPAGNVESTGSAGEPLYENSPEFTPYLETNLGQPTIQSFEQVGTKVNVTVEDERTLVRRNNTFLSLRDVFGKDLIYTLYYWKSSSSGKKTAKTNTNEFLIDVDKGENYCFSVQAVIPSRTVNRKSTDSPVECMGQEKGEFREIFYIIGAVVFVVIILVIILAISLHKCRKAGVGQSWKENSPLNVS
UniProt P07237, residues 18-508: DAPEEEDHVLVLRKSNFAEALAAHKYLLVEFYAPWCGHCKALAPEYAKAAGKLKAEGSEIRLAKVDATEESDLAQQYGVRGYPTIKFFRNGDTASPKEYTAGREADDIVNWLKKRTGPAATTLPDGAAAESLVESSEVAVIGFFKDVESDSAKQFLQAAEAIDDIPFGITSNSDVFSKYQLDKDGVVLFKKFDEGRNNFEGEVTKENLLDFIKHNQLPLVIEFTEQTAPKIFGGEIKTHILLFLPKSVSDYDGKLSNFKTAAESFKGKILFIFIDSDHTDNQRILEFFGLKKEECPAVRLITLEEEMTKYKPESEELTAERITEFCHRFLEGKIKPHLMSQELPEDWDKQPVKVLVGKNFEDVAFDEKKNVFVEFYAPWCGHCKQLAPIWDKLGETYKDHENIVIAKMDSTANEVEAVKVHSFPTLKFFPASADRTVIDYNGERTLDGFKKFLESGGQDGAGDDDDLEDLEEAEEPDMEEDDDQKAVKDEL

Legend:
[1] = target: tissue factor (TF), cell surface-expressed wild-type (human) (UniProt P13726); test: co-immunoprecipitation of NHS surface-biotinylated PDI with TF, Western blotting
[2] = target: tissue factor (TF), cell surface-expressed wild-type (human) (UniProt P13726); test: MPB thiol labelling of the cell surface and co-precipitation with TF from high Ca^2+ HaCaT cells
[3] = target: tissue factor (TF), cell surface-expressed wild-type (human) (UniProt P13726); test: biotin switch method, PDI immunoprecipitation from high Ca^2+ HaCaT cells
[4] = target: tissue factor (TF), cell surface-expressed wild-type (human) (UniProt P13726); test: summary of the examples
[5] = target: tissue factor (TF), cell surface-expressed wild-type (human) (UniProt P13726); test: co-immunoprecipitation from NHS surface-biotinylated HaCaT cells

Measured: binding

protein disulfide isomerase (PDI), cell surface (from UniProt P07237 18-508) (enzyme)
binds: all assays above
